Results are given in words; binding and its absence hold for the method and conditions named.

Chains of the proteins cited; added tags and fusions are not shown.
UniProt P0A6X3: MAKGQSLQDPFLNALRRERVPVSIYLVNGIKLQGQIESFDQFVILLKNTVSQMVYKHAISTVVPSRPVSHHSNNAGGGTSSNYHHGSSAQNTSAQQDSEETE
UniProt Q51380: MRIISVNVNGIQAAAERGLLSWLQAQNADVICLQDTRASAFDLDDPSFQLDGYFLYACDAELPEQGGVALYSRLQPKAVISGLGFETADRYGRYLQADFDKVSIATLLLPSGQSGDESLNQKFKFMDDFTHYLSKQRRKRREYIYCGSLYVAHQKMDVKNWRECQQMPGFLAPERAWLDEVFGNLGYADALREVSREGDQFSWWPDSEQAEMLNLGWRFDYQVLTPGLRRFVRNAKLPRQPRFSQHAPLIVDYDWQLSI

For the test, the target named is E. coli HfqEc-T18 fusion protein (E. coli) (UniProt P0A6X3). The test can be described thus: two-hybrid.

As for T25-Crc (from UniProt Q51380 1-259), the binding result was “no binding”.

Values taken from PMC5815094.
